The results in this text go back to PMC4474334.

Chains of the proteins cited; added tags and fusions are not shown. Lines headed by an entry give the natural chain unless they say otherwise; changes in a name come on top. Residues count along the entry.
UniProt P15917, residues 34-809: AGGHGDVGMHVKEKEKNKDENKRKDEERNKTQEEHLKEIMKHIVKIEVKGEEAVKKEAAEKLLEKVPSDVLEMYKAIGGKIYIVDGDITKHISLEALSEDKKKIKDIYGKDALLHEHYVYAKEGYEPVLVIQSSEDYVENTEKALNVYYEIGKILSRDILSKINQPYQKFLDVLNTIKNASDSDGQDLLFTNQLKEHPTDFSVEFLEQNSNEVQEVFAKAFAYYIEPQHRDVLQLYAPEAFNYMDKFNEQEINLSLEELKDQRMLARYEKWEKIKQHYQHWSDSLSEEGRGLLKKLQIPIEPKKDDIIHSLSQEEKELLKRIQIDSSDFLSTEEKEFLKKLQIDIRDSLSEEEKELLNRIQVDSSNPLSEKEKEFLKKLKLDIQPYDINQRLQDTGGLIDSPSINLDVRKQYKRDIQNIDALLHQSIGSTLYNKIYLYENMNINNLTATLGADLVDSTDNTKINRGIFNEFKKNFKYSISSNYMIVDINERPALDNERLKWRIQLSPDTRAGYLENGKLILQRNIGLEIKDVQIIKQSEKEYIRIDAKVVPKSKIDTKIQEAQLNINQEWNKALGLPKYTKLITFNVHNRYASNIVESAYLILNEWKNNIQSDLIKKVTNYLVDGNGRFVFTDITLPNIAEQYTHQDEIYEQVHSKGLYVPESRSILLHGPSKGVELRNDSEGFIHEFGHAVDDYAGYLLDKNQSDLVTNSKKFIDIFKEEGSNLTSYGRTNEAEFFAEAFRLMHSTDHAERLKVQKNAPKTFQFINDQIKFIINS
UniProt Q91VR2: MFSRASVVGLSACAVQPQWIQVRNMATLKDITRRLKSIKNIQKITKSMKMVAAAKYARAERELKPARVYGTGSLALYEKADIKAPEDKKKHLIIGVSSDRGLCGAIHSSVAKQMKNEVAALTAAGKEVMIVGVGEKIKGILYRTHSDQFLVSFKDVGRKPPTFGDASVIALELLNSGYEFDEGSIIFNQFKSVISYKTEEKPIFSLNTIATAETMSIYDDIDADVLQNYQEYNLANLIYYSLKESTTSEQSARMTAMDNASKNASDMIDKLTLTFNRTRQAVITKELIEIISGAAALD

In assay [1] the target is anthrax lethal factor (Bacillus anthracis) (UniProt P15917). The experiment in a line: co-IP.
The target of assay [2] is Mitochondrial ATP synthase H+ transporting F1 complex gamma polypeptide (mouse (endogenous in MH-S and LA-4)) (UniProt Q91VR2). The experiment in a line: far-Western; only the binder purified.

Results are given in words; binding and its absence hold for the method and conditions named. A result given as binding can be weak or reduced; the word gives no strength. For some assays here: Binding seen in cells or lysates may run through a third protein.

Consider “Mitochondrial ATP synthase H+ transporting F1 complex gamma polypeptide (from UniProt Q91VR2)”, for which, in assay [1], the binding entry is on record as “binds”.
Turning to “anthrax lethal factor (from UniProt P15917 34-809) (enzyme)”, the binding result in assay [2] is given as “binds”.
